In article PMC11149935, “SAFB regulates hippocampal stem cell fate by targeting Drosha to destabilize Nfib mRNA” (eLife, 2024):
Results are given in words; binding and its absence hold for the method and conditions named. Binding seen in cells or lysates may run through a third protein. Some entries that bind do so weakly or less than the wild type. Each block holds one molecule with its values, some of them ahead of it.

Sequences of proteins named here, by UniProt entry; tags and fusion partners are left off. A change or cut given only in a name is not applied to a line headed by its entry.
UniProt D3YXK2: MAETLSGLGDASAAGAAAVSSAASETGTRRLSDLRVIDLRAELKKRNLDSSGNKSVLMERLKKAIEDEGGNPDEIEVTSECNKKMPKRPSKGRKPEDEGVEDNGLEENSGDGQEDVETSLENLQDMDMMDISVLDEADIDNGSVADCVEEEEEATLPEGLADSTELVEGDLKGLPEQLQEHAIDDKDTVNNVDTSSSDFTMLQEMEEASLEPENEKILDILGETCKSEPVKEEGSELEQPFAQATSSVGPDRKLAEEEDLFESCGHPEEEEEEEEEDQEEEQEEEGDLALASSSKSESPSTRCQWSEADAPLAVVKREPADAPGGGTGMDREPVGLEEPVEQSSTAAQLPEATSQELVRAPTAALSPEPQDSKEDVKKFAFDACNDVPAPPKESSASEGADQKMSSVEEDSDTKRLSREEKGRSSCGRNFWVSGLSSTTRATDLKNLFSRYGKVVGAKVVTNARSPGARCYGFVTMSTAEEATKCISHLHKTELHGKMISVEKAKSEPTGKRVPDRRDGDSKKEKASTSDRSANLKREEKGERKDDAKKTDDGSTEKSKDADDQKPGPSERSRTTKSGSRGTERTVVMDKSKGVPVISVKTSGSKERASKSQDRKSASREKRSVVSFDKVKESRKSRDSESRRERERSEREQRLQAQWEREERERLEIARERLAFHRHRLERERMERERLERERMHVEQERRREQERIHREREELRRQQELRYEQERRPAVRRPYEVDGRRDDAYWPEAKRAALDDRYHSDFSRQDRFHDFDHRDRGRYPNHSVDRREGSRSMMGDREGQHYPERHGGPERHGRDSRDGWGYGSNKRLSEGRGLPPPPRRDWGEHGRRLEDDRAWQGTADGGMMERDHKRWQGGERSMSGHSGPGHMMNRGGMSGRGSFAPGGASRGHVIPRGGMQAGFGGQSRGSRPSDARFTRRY

How the values were obtained:
[1] = target: T1, Drosha (mouse (endogenous in DG NSCs)) (UniProt Q5HZJ0); experiment: co-IP; endogenous proteins; 1 mg DG NSC lysate (20 mM HEPES-KOH pH 7.9, 100 mM KCl, 0.5% Triton) treated with or without RNase, anti-Drosha or anti-SAFB antibody overnight at 4°C, magnetic beads, immunoblot; control without antibody
T1 sequence: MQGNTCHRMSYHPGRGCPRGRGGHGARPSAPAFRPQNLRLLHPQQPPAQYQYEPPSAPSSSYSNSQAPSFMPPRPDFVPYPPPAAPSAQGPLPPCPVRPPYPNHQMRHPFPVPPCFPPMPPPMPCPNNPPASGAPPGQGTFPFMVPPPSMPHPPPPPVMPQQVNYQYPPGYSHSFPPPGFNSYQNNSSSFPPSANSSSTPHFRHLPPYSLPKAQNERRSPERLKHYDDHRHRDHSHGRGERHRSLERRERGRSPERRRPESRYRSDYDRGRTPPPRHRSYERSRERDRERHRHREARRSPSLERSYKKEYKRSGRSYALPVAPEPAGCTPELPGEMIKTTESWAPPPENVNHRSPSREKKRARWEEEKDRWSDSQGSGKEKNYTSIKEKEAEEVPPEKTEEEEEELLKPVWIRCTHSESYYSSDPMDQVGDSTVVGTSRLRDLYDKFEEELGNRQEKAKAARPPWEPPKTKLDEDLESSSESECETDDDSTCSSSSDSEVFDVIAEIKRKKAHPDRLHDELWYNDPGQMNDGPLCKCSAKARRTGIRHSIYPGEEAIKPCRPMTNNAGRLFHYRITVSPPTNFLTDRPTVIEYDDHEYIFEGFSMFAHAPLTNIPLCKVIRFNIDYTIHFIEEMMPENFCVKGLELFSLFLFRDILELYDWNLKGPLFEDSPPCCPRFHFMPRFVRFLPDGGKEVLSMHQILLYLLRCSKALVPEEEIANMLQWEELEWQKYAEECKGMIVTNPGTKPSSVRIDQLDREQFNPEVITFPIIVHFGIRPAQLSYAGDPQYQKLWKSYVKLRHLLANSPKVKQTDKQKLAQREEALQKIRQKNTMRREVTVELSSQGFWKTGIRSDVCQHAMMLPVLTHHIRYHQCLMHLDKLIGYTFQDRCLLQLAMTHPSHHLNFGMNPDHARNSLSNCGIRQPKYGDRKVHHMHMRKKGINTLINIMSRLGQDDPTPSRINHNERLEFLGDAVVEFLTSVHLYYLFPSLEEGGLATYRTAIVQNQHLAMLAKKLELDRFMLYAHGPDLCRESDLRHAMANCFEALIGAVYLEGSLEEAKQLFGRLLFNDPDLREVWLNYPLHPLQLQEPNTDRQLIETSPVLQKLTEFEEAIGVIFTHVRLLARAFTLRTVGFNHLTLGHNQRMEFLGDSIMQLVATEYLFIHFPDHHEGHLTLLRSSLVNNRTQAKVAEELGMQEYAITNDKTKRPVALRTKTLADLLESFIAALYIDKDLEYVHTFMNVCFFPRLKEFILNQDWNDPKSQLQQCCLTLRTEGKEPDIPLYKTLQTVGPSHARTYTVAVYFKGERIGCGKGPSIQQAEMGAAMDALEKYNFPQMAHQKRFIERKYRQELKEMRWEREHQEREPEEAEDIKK

[2] = target: scaffold attachment factor B (SAFB) (mouse (endogenous in DG NSCs)) (UniProt D3YXK2); experiment: as above
[3] = target: T2, Drosha (endogenous, N2A cells) (mouse (endogenous in N2A)) (UniProt Q5HZJ0); experiment: co-IP; N2A cells with or without esiRNA Safb knock-down; full lysate treated with RNase A and DNase I, IP of endogenous Drosha, immunoblot for SAFB and Drosha in the complexes used for in vitro processing
T2 sequence: T1 sequence

binding [3]: binds
Molecule: SAFB (endogenous, N2A cells) (from UniProt D3YXK2 1-937)

binding [2]: binds
B1: Drosha (enzyme, UniProt Q5HZJ0 1-1373)
chain: T1 sequence

More lines, now with the values behind:

Molecule: PKC-α (from UniProt P20444 1-672)
binding [1]: no binding
binding [2]: no binding

Molecule: scaffold attachment factor B (SAFB) (from UniProt D3YXK2 1-937)
binding [1]: binds
